Experimental data reported in patent publication US20240368226A1, “Cyclic Cell Penetrating Peptides For Treating Neisseria Gonorrhoeae Infections” (priority 2023, published 2024).
Entries after “also recorded” stand apart in the source; their conditions may differ. Like-named read-outs stand apart in the source and are kept apart here. Not every detail of the peptide structures is certain; ends, links or a residue may be inferred. Where a SMILES comes first, the peptide text is derived from it. Bridges are numbered along the chain shown (N, C = ends). [ ]: non-standard residue; d: D form. Ahx = NCCCCCC(=O)O

Assays:
[1] = system: sialylated N. gonorrhoeae (FA1090 1-81-S2, F89, H041); assay: Bactericidal assay with sialylated gonococci grown on GC agar containing CMP-NANA; format: cell-based, Neisseria gonorrhoeae
[2] = system: FA1090 gonococci in the presence of End1/E6E7, ME-180 and THP-1 cells; assay: Bacterial survival assay in the presence of human cells; format: cell-based, Neisseria gonorrhoeae; details: for effect of the presence of human cells on potency for FA1090: with versus without human cell types
[3] = system: N. flavescens strain 4322; assay: Bactericidal assay, commensal N. flavescens; format: cell-based, Neisseria flavescens; details: 4 h; for sensitivity of N. flavescens (in words): RPMI-1640 with 10% FBS
N. lactamica strain 1934 = assay: Bactericidal assay, commensal N. lactamica; format: cell-based, Neisseria lactamica; details: 4 h; for sensitivity of N. lactamica (in words): RPMI-1640 with 10% FBS
N. subflava strain 52 = assay: Bactericidal assay, commensal N. subflava; format: cell-based, Neisseria subflava; details: 4 h; for sensitivity of N. subflava (in words): RPMI-1640 with 10% FBS
[4] = system: S. aureus strains 8325-4 and Newman; format: cell-based, Staphylococcus aureus; details: for eradication of S. aureus: even at the 100 mM concentration; for potency for S. aureus compared to N. gonorrhoeae or Neisseria commensal strains: two strains
Experimental: The sensitivity of a Gram positive species was also tested.
N. flavescens strain 4322, N. lactamica strain 1934, and N. subflava strain 52, were available from the collections of the late Dr. Herman Schneider of the Walter Reed Army Institute of Research and of the Neisseria Repository that was formerly housed at UC Berkeley. The 8325-4 and Newman are strains of S. aureus. The latter is β-hemolytic.
S. aureus were grown overnight on Difco GC agar containing 1% BBL Isovitalex Enrichment. Using a sterile cotton swab, bacterial colonies were placed in suspension in GC broth containing 1% BBL Isovitalex. Absorbance of the bacterial suspension at 595 nm was determined to enable dilution to approximately 4×10^6 cells/mL in GC broth. Aliquots of the suspension containing 8×10^5 bacteria along with the CPPs, diluted from stock solutions in DMSO, were added in GC broth containing 1% BBL Isovitalex to make a total volume of 200 μL/well. Bacteria in GC broth with Isovitalex and 1% DMSO were added to vehicle-only control wells. Each test condition was plated in sextuplicates. Peripheral wells of the 96-well plate were filled with filtered deionized water to minimize edge effects. After incubation in 5% CO2 at 37° C. for 18 h, plates were analyzed at 600-nm on an Epoch microtiter plate reader. The percentage inhibition of each sample was determined relative to the absorbance of the blank (GC broth only) and the vehicle-only controls. Any inhibition found to be less than 30% relative to the vehicle-only controls was further verified by plating the suspension on GC agar containing 1% Isovitalex, followed by overnight incubation and then counting to assess bacterial viability. If no growth was observed on the plate, then that test concentration was determined to be inhibitory.

[5] = system: N. gonorrhoeae human challenge strain FA1090 1-81-S2 and MDR strains F89, H041 (nine strains for the linear CPP); format: cell-based, Neisseria gonorrhoeae; details: bacteria from colonies after a 4 h exposure to CPP and then retreated
N. gonorrhoeae = assay: Penetration of the gonococcal membrane / uptake of FITC-labeled (RXR)4; format: cell-based, Neisseria gonorrhoeae
[6] = 20 mM concentration and also at lower concentrations

Compound: N=C(N)NCCC[C@@H]1NC(=O)CSC[C@@H](C(N)=O)NC(=O)[C@H](CCCNC(=N)N)NC(=O)CCCCCNC(=O)[C@H](CCCNC(=N)N)NC(=O)[C@H](CCCNC(=N)N)NC(=O)CCCCCNC(=O)[C@H](CCCNC(=N)N)NC(=O)[C@H](CCCNC(=N)N)NC(=O)CCCCCNC(=O)[C@H](CCCNC(=N)N)NC(=O)[C@H](CCCNC(=N)N)NC(=O)CCCCCNC1=O [TE cyclized CPP, c [RXRRXRRXRRXRC(S—)]] ({CH2CO}-R[Ahx]RR[Ahx]RR[Ahx]RR[Ahx]RC-NH2; thioether N-13)
- bactericidal activity for sialylated N. gonorrhoeae (in words) [1]: bactericidal
- activity against sialylated compared to non-sialylated F89 ([1]; 4 µM): less active against sialylated
- activity against sialylated compared to non-sialylated H041 ([1]; 20 μM): more active against sialylated
- effect of LOS sialylation on potency for FA1090 ([1]; 20 μM): decreased the potency
- bactericidal activity for sialylated N. gonorrhoeae (in words) ([1]; listed as tcCPP): bactericidal activity
- bactericidal activity in the presence of human cells (in words) [2]: bactericidal in the presence of human cells
- bactericidal potency for FA1090 compared to linear CPP ([2]; 4 µM, in the presence of all three cell types): more potent
- bactericidal potency for FA1090 compared to linear CPP ([2]; 20 M, End1/E6E7 cells): tended to have more potency
- bactericidal potency for FA1090 compared to linear CPP ([2]; 20 M, in the presence of ME-180 and THP-1 cells): more bactericidal potency
- bactericidal activity compared to linear CPP in the presence of cells ([2]; Example 3, THP-1, End1/E6E7 and ME-180 cells, 10% FBS, 4 h): significantly more bactericidal
- effect of the presence of human cells on potency for FA1090 [2]: reduce the potency
- bactericidal activity compared to linear CPP, N. flavescens [3, 6]: significantly more potent
- sensitivity of N. flavescens (in words) [3]: sensitive
- sensitivity of N. flavescens (in words) ([3]; listed as cCPP): more susceptible
- bactericidal activity compared to linear CPP, N. lactamica (N. lactamica strain 1934; [6]): significantly more potent
- sensitivity of N. lactamica (in words) (N. lactamica strain 1934): sensitive
- sensitivity of N. lactamica (in words) (N. lactamica strain 1934; listed as cCPP): more susceptible
- bactericidal activity compared to linear CPP, N. subflava (N. subflava strain 52; 20 mM concentration): significantly more potent
- sensitivity of N. subflava (in words) (N. subflava strain 52): sensitive; also recorded: more susceptible than N. lactamica
- sensitivity of N. subflava (in words) (N. subflava strain 52; listed as cCPP): more susceptible
- eradication of S. aureus [4]: no evidence of complete eradication
- potency for S. aureus compared to N. gonorrhoeae or Neisseria commensal strains [4]: markedly less

Compound: N=C(N)NCCC[C@H](NC(=O)CCCCCNC(=O)[C@H](CCCNC(=N)N)NC(=O)[C@H](CCCNC(=N)N)NC(=O)CCCCCNC(=O)[C@H](CCCNC(=N)N)NC(=O)[C@H](CCCNC(=N)N)NC(=O)CCCCCNC(=O)[C@H](CCCNC(=N)N)NC(=O)[C@H](CCCNC(=N)N)NC(=O)CCCCCNC(=O)[C@@H](N)CCCNC(=N)N)C(=O)O [linear CPP, RXRRXRRXRRXR, reference compound] (H-R[Ahx]RR[Ahx]RR[Ahx]RR[Ahx]R-OH)
- resistance to the CPP developed in surviving bacteria [5]: no apparent resistance
- bactericidal activity for sialylated N. gonorrhoeae (in words) [1]: bactericidal activity
- bactericidal activity in the presence of human cells (in words) [2]: bactericidal in the presence of human cells
- effect of the presence of human cells on potency for FA1090 [2]: reduce the potency
- eradication of S. aureus [4]: no evidence of complete eradication
- potency for S. aureus compared to N. gonorrhoeae or Neisseria commensal strains [4]: markedly less
- penetration of the bacterial membrane (N. gonorrhoeae): penetrated the bacterial membrane
